Experimental data reported in publication PMC6466687.
These are yes or no findings as the source states them, for the method shown. Binding seen in cells or lysates may run through a third protein. Some results given as binding are weak or reduced against the parent protein; the word gives no strength.

The chains behind the UniProt entries cited, without tags or fusion partners.
UniProt Q13620: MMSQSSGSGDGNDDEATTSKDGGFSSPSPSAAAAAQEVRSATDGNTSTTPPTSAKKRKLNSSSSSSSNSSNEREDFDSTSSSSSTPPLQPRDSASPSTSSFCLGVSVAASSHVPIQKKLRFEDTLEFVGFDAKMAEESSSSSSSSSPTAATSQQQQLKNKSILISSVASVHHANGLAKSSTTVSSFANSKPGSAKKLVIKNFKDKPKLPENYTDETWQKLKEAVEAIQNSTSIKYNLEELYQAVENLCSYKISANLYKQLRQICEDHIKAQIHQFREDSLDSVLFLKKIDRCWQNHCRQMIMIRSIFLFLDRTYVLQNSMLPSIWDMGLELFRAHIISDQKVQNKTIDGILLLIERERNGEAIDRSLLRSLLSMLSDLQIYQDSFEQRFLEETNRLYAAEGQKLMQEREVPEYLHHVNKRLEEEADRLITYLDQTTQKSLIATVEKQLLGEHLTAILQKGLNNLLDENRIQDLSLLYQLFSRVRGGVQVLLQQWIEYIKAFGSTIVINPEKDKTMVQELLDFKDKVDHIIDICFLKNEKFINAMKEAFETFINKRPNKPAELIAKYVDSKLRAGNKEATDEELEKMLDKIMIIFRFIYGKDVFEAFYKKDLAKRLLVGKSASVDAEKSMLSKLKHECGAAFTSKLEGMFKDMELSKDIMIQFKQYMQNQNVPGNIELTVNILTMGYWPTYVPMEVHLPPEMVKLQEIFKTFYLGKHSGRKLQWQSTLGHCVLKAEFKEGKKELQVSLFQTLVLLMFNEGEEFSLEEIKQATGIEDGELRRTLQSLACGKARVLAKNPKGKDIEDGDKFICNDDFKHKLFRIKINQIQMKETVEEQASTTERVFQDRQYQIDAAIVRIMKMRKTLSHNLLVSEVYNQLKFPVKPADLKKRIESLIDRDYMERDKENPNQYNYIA
UniProt P51449: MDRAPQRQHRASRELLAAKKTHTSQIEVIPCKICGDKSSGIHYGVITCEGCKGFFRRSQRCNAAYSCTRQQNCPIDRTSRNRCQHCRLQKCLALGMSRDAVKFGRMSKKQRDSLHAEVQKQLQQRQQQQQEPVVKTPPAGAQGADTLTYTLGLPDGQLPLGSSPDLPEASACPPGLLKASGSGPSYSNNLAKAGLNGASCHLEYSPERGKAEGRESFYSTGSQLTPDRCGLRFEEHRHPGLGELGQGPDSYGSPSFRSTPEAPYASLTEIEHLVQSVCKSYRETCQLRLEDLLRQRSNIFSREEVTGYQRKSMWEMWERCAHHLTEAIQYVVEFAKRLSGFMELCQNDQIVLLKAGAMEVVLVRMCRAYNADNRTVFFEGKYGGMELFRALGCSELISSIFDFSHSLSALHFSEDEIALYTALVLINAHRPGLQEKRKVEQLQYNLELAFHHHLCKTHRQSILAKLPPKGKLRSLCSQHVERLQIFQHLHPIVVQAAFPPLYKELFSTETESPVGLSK

Molecular target: CUL4B (human (endogenous in NT2)) (UniProt Q13620)
Experiment: co-IP; whole NT2 cell extract; 800 μg lysate with 2 μg CUL4B antibody 3-4 h at 4 °C, Protein A/G Sepharose beads; normal rabbit IgG as control; western blot with anti-CUL4B and anti-RORγ antibodies

- binding: binds
Substance: retinoic acid-related orphan nuclear receptor gamma (from UniProt P51449 1-518)
